Test results taken from publication doi:10.1101/2022.11.03.515015.
These are yes or no findings as the source states them, for the method shown.

Amino acid sequences for entries named in this document (tags omitted).
UniProt O95071: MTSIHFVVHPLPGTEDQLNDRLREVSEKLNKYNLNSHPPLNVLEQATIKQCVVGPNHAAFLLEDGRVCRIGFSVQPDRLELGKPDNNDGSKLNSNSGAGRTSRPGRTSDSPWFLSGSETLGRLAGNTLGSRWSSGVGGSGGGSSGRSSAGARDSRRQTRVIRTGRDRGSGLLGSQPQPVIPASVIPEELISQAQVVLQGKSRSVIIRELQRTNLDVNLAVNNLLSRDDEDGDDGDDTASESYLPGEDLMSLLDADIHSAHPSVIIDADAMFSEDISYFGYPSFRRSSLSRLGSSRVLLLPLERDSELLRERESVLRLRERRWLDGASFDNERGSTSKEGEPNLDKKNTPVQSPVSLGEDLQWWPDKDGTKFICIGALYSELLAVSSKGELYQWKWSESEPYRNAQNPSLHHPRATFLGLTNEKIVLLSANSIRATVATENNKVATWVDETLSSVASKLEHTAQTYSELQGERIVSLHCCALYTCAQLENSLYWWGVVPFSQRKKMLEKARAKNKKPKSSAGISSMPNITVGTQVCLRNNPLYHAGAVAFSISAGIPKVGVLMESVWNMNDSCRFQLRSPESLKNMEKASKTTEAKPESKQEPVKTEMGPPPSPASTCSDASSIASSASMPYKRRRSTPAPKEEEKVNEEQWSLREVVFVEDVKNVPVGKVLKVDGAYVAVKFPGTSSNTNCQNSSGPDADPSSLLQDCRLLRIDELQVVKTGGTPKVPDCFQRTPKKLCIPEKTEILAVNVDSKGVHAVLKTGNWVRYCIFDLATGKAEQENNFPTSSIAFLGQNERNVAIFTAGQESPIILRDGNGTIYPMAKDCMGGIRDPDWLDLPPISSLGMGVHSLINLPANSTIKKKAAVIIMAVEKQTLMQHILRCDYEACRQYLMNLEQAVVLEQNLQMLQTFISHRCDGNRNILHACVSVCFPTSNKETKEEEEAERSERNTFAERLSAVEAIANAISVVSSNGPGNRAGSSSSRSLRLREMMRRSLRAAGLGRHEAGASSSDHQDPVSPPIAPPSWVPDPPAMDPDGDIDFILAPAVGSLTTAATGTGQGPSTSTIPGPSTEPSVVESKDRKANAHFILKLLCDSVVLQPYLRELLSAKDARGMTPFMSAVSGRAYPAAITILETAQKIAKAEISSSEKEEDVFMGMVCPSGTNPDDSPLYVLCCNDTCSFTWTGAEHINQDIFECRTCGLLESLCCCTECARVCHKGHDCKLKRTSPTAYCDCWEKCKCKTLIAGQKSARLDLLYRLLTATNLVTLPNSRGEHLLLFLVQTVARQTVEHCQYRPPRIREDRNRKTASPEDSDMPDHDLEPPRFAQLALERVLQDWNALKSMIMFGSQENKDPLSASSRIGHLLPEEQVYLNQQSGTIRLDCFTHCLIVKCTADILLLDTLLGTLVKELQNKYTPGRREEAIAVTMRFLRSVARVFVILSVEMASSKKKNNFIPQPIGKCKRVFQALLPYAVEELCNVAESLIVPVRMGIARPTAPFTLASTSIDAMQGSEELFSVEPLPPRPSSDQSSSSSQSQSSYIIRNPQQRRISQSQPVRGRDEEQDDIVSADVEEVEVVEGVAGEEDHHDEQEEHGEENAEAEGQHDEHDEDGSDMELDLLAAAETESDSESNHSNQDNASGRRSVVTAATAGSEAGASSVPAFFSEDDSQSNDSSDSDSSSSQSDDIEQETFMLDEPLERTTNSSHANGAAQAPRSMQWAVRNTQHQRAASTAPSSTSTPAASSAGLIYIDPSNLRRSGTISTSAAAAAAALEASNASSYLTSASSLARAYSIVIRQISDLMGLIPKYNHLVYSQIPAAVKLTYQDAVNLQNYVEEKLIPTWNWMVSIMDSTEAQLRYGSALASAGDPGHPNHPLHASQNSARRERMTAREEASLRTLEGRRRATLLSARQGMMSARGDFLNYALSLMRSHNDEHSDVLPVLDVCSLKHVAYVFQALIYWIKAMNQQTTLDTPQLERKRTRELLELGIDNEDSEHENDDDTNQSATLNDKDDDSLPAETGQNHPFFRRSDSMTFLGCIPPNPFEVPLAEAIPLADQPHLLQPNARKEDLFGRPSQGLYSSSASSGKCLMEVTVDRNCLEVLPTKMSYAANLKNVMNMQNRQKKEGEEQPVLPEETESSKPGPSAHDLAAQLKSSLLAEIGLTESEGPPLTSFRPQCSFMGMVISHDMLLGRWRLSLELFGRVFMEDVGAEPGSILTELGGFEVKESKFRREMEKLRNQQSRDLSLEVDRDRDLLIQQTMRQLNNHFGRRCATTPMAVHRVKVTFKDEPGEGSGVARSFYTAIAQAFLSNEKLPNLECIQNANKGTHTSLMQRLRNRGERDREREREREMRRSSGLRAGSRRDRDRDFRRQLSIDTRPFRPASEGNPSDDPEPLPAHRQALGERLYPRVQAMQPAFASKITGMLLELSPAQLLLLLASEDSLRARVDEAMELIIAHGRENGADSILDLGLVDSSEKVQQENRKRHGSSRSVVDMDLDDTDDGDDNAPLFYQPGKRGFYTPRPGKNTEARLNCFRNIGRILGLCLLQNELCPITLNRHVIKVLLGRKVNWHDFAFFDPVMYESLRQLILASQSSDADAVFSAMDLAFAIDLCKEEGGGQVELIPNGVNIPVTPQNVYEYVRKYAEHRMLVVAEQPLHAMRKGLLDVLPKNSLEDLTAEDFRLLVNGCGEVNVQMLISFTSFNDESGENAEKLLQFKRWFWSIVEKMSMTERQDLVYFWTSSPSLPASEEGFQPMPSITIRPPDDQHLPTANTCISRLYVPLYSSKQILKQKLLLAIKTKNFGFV

Target: full-length human UBR5 (construct for activity assays: double strep tag, 3C site, UBR5) (human) (UniProt O95071)
Assay: co-sedimentation

- binding: no binding (tested: 40 pmol)
B1: Securin (protein, UniProt O95997 1-202)
chain: MATLIYVDKENGEPGTRVVAKDGLKLGSGPSIKALDGRSQVSTPRFGKTFDAPPALPKATRKALGTVNRATEKSVKTKGPLKQKQPSFSAKKMTEKTVKAKSSVPASDDAYPEIEKFFPFNPLDFESFDLPEEHQIAHLPLSGVPLMILDEERELEKLFQLGPPSPVKMPSPPWESNLLQSPSSILSTLDVELPPVCCDIDI
modifications: FAM label
